# Values of other authors, collected in patent US11369619B2, “Composition for curing migraine headaches” (priority 2014, dated 2022).
# At least one structure is not confirmed: it was looked up by name or label, or the drawing left a doubt.
# System: recurrent headache in acute migraine patients
# Conditions: dexamethasone added to a standard migraine treatment
smiles,measurement,value
C[C@@H]1C[C@H]2[C@@H]3CCC4=CC(=O)C=C[C@]4(C)[C@@]3(F)[C@@H](O)C[C@]2(C)[C@@]1(O)C(=O)CO [dexamethasone],risk reduction,9.7%
